Measured values as given in article PMC8629982.
Results are given in words; binding and its absence hold for the method and conditions named. In cells and extracts the contact can be indirect. Some entries that bind do so weakly or less than the wild type.

The chains behind the UniProt entries cited, without tags or fusion partners.
UniProt P09651: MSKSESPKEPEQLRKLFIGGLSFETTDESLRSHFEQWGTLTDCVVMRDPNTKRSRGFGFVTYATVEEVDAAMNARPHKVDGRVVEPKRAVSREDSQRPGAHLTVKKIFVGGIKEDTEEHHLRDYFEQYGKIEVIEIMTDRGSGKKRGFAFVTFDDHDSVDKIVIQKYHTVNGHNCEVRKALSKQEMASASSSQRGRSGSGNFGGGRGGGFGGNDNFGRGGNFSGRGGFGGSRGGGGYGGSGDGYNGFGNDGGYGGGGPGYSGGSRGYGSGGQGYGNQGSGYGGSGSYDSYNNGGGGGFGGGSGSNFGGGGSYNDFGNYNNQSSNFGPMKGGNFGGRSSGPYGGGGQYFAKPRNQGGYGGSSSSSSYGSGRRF
UniProt Q93009: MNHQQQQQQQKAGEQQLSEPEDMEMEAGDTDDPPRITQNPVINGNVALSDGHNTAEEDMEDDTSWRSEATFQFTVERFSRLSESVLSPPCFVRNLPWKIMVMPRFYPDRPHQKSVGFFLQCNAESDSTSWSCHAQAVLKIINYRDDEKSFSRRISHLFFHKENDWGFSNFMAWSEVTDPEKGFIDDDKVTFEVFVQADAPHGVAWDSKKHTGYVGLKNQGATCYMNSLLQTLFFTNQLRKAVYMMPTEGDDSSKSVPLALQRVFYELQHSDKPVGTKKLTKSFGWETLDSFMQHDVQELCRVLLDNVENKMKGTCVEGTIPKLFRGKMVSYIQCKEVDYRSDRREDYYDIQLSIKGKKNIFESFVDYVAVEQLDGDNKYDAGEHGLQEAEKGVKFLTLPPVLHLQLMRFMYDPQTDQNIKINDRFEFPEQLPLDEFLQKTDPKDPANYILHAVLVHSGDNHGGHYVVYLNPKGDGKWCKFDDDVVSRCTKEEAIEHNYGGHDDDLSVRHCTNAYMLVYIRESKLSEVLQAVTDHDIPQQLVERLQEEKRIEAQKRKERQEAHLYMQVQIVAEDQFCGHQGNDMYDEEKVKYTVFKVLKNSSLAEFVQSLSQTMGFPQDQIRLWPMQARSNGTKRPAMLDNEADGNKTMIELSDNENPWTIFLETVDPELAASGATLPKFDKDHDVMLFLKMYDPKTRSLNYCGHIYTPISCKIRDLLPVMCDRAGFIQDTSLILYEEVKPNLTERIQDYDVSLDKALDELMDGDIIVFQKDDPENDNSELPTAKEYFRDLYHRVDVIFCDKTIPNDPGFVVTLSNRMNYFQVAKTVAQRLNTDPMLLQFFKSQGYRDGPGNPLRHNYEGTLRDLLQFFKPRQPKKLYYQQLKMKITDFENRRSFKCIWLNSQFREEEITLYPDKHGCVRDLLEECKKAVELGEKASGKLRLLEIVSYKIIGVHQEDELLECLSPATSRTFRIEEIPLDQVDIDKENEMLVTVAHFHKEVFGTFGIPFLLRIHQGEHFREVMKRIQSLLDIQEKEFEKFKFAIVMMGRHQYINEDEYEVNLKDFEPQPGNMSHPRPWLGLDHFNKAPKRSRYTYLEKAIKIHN

Biological target: heterogeneous nuclear ribonucleoprotein A1 (human (in human gastric cancer cell lines; the line is not named for this experiment)) (UniProt P09651)
Assay: co-IP; cell lysate (150 mM KCl, 25 mM Tris-HCl pH 7.4, 5 mM EDTA, 0.5% Triton X-100, 5 mM dithiothreitol) mixed with anti-hnRNPA1, anti-USP7 or isotype control IgG at 4 °C overnight, then beads; western blot

binding: binds
Substance: USP7 (from UniProt Q93009 1-1102) (enzyme)
